# Results: PubChem BioAssay AID1347075 (National Center for Advancing Translational Sciences (NCATS), 2019)
# Among all 400,000 compounds or so, about 5,500 (1.4%) were called active. Inconclusive means that the source gave no clear call. Such entries were picked first, then a sample of the others. The call rests on the fitted dose curve; in most records, active means well fitted cell-killing curve with a large enough effect; inconclusive means small, poorly fitted or top-dose-only effect, or effect the other way; inactive means flat fitted curve, though single readings scatter. Potencies beside an inconclusive call are fits to weak or partial responses and may not hold up.
# Experiment: qHTS assay for MDR1-selective chemotherapeutics: Primary screen using the parental adenocarcinoma cell KB-3-1; further: nearly all actives have a fitted effect of over 60% in size
# Conditions: KB-3-1 viability, CellTiter-Glo ATP luminescence, 72 h; activity change, negative = cytotoxic: at 46.1 µM (top of the series)
# Summary of the method: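 72 h, 37 °C compound treatment of KB-3-1 parental cells; CellTiter-Glo added, 10 min, luminescence read. Data corrected against DMSO-only plates and normalized before curve fitting.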
# On the % scale 0 is the no-effect control and ±100 the full control effect; potency means the concentration at half of the fitted maximal effect.
SMILES,"activity change, negative = cytotoxic",Potency
O=C(CSc1ccc(Cl)cc1)Nc1nnc(-c2ccco2)o1,inactive: 1.23%,–
CCn1c(SC(C)C(=O)NCc2ccco2)nnc1-c1ccccc1 (configuration not stated),inconclusive: 39%,–
C=CCc1cccc2cc(C(=O)N3CCN(C(=O)c4ccco4)CC3)c(=O)oc12,inactive: -12.2%,–
Cc1ccccc1-c1nc(-c2ccc(NC(=O)c3ccc4c(c3)OCO4)cc2)no1,–,"inconclusive: 20 µM [cytotoxic, single point]"
COc1ccc(NC(=O)c2c(NC(=O)CNCC(C)C)sc3c2CCC3)c(OC)c1,–,"inconclusive: 3.26 µM [cytotoxic, partial curve, poor fit]"
NC1=NC(=O)/C(=C/c2cccc(-c3ccc(S(N)(=O)=O)cc3)c2)S1,–,"inconclusive: 29.1 µM [rising, single point]"
Cc1ccc(-c2nc3ccccc3o2)cc1NC(=S)NC(=O)/C=C/c1ccco1,–,active: 13 µM
O=S(=O)(c1ccc(Oc2ncnc3scc(-c4ccccc4)c23)cc1)N1CCOCC1,–,"inconclusive: 16.4 µM [cytotoxic, single point]"
CCOC(=S)SCC(=O)N1CCc2cc(OC)ccc2C1C1C(=O)CCCC1=O (configuration not stated),–,"inconclusive: 29.1 µM [cytotoxic, single point]"
COc1ccc2[nH]c3c(C)c4cc[n+](C)cc4c(C)c3c2c1,–,"inconclusive: 23.1 µM [cytotoxic, single point]"
CCc1cccc(NC(=O)C2CCN(C(=O)c3cnn(-c4ccccc4)c3-n3cccc3)CC2)c1,–,"inconclusive: 18.4 µM [cytotoxic, partial curve, poor fit]"
CCOC(=O)C1CCCN(C(=O)c2nn(-c3ccc(OC)cc3)c(=O)c3c2c2ccccc2n3C)C1 (configuration not stated),inactive: -1.55%,–
Cc1ccc(NC(=O)CSc2nc3ccccc3c(=O)n2CCCN2CCCCC2)cc1C,–,"inconclusive: 29.1 µM [cytotoxic, single point]"
CC(=O)OC(C)CS(=O)(=O)c1ccccc1 (configuration not stated),–,"inconclusive: 0.326 µM [rising, full curve, poor fit]"
COc1cc2c(cc1OC)C1=C(C#N)CC/C(=N\S(=O)(=O)c3cccc(Cl)c3)N1CC2,–,"inconclusive: 23.1 µM [cytotoxic, single point]"
COc1ccc(CN2CCC(C(=O)c3ccc(F)cc3)CC2)cc1,inactive: -5.48%,–
O=C(c1cccc(S(=O)(=O)N2CCCCC2)c1)N(CCc1ccccc1)Cc1ccccc1,–,"inconclusive: 18.4 µM [cytotoxic, single point]"
COc1ccc(CNC(=O)C/C(C)=N/NC(=O)Cc2ccc(OC)c(OC)c2)cc1,inactive: 6.24%,–
CCc1ccc(-n2nc(C)c3c(C)cc(=O)n(CC(=O)N4CCCc5ccccc54)c32)cc1,inactive: -6.16%,–
CCCCCC(=O)NNC(=O)c1c(O)c2ccccc2n(CC)c1=O,–,"inconclusive: 18.4 µM [cytotoxic, single point]"
CCOC(=O)N1CCN(c2c(NCCCN(CC)c3cccc(C)c3)c(=O)c2=O)CC1,–,"inconclusive: 14.6 µM [rising, partial curve, poor fit]"
Cc1cccc(OC(C)C(=O)Nc2ccc(S(=O)(=O)N3CCCC3)cc2)c1 (configuration not stated),–,"inconclusive: 29.1 µM [cytotoxic, partial curve, poor fit]"
CC(C)CNC(=O)c1ccc2c(c1)C(=O)N(Cc1ccco1)C2=O,inactive: 7.12%,–

SMILES,"activity change, negative = cytotoxic",Potency
CC(=O)Nc1nc2ccccc2n1Cc1ccccc1Cl,–,"inconclusive: 11.6 µM [cytotoxic, partial curve, poor fit]"
CC(=O)N1N=C(c2ccc3ccccc3c2)OC1(C)C,–,"inconclusive: 29.1 µM [cytotoxic, single point]"
CCOC(=O)c1c(C)[nH]c(C(=O)COC(=O)CSC)c1C,–,"inconclusive: 29.1 µM [cytotoxic, single point]"
CCn1c(C)nc2c(C)[n+](CC(=O)c3ccc(Br)cc3)ccc21,–,"inconclusive: 18.4 µM [cytotoxic, single point]"
CCOc1ccc(CN(CCO)CCO)cc1[N+](=O)[O-],inactive: 2.76%,–
Cc1cccc(CNC(=O)Cn2nc(C)n3c(cc4cc(F)ccc43)c2=O)c1,inactive: -2.3%,–
COc1ccc(OC)c(-c2csc(NC(=O)c3ccc(F)cc3)n2)c1,–,"inconclusive: 29.1 µM [cytotoxic, single point]"
CNc1nc(N2CCc3ccccc32)ncc1F,–,"inconclusive: 18.4 µM [cytotoxic, single point]"
O=C(NC1CCN(S(=O)(=O)c2ccc(F)cc2)CC1)c1cccc(F)c1,inactive: 10.2%,–
Cc1ccccc1C(=O)NC(=S)Nc1ccccc1N1CCCC1,–,"inconclusive: 18.4 µM [cytotoxic, single point]"
CCOC(=O)c1cc([N+](=O)[O-])sc1NC(=O)CC,–,"inconclusive: 29.1 µM [cytotoxic, single point]"
Cc1nc(SCC(=O)NCC2CCCO2)[nH]c(=O)c1C (configuration not stated),inactive: -0.533%,–
CCN=c1scc(-c2ccc3c(c2)NC(=O)CO3)n1N=C1CCCC1,–,"inconclusive: 20.6 µM [cytotoxic, partial curve, poor fit]"
CSc1nc2ccc(NC(=O)c3nn(C(C)C)c(=O)c4ccccc34)cc2s1,–,"inconclusive: 16.4 µM [rising, single point]"
CCc1ccccc1NC(=O)CCNS(=O)(=O)c1cc(Br)cnc1N,–,"inconclusive: 0.0366 µM [rising, full curve]"
Cc1ccc(C(C#N)c2ccc(C(=O)c3ccc(F)cc3)cc2)cc1 (configuration not stated),–,"inconclusive: 20.6 µM [cytotoxic, single point]"
[O-][n+]1onc2c1CCc1c-2nn(-c2ccccc2Cl)[n+]1[O-],–,"inconclusive: 18.4 µM [cytotoxic, single point]"
CCOc1ccc2nc(NC(=O)C3CCN(c4cnccn4)CC3)sc2c1,–,"inconclusive: 18.4 µM [cytotoxic, single point]"
Cc1cccc(C)c1NC(=O)CN(c1ccccn1)S(=O)(=O)c1ccc(F)cc1,–,"inconclusive: 20.6 µM [cytotoxic, single point]"
Cc1cccc(/C=C(\c2nc3ccccc3[nH]2)S(=O)(=O)c2ccccc2)c1,–,active: 4.11 µM
Cc1ccc(C(=O)Nc2ncnc3sc4c(c23)CCCCC4)cc1,–,"inconclusive: 29.1 µM [cytotoxic, single point]"
COc1ccc(C(=O)N/N=C/c2sc3ccccc3c2O)cc1,–,active: 7.31 µM
S=C(N/N=C/c1ccc(Cl)c(Cl)c1)Nc1ccccc1Cl,–,active: 20.6 µM

# Quoted at random: 5 compounds from above, in no set order.
SMILES,"activity change, negative = cytotoxic",Potency
NC1=NC(=O)/C(=C/c2cccc(-c3ccc(S(N)(=O)=O)cc3)c2)S1,–,"inconclusive: 29.1 µM [rising, single point]"
Cc1ccc(NC(=O)CSc2nc3ccccc3c(=O)n2CCCN2CCCCC2)cc1C,–,"inconclusive: 29.1 µM [cytotoxic, single point]"
CCOC(=S)SCC(=O)N1CCc2cc(OC)ccc2C1C1C(=O)CCCC1=O (configuration not stated),–,"inconclusive: 29.1 µM [cytotoxic, single point]"
Cc1cccc(C)c1NC(=O)CN(c1ccccn1)S(=O)(=O)c1ccc(F)cc1,–,"inconclusive: 20.6 µM [cytotoxic, single point]"
CCn1c(SC(C)C(=O)NCc2ccco2)nnc1-c1ccccc1 (configuration not stated),inconclusive: 39%,–

# Following part

SMILES,"activity change, negative = cytotoxic",Potency
CC1C(=O)N(Cc2cn(CC3CCCCC3)nn2)CCS(=O)(=O)N1Cc1ccc(-c2ccc(Cl)cc2)cc1 (configuration not stated),–,"inconclusive: 29.1 µM [cytotoxic, single point]"
C/C(=N\N=C(N)N)c1cc(Cl)ccc1Cl,inactive: 0.451%,–
COc1ccccc1/C=C1\CCCC2=C1Nc1nnnn1C2c1ccccc1OC (configuration not stated),–,"inconclusive: 20.6 µM [cytotoxic, single point]"
CCC(=O)Nc1cccc(Br)c1,–,"inconclusive: 18.4 µM [rising, partial curve, poor fit]"
O=C(O)CCSc1ccc([N+](=O)[O-])cc1[N+](=O)[O-],–,"inconclusive: 23.1 µM [cytotoxic, partial curve, poor fit]"
FC(F)(F)c1cccc(NC(=S)NCc2ccc(Cl)cc2)c1,–,"inconclusive: 23.1 µM [cytotoxic, single point]"
O=C1N[C@H](Cc2ccccc2)COC(=O)[C@@H](Cc2ccc(F)cc2)CC/C=C/C[C@H]1CC(=O)N(CCO)Cc1ccccc1,–,"inconclusive: 20.6 µM [cytotoxic, single point]"
C[C@@H]1C[C@H]2[C@@H]3C[C@H](F)C4=CC(=O)C=C[C@]4(C)[C@@]3(F)[C@@H](O)C[C@]2(C)[C@@]1(O)C(=O)CO,inactive: 0%,–
CCc1ccc(C2c3[nH]c4ccccc4c3CCN2C(=O)c2cc(C)nn2C)cc1 (configuration not stated),–,"inconclusive: 18.4 µM [cytotoxic, single point]"
Cc1c(-c2cccc(Cl)c2)nc2ccccc2c1C(=O)OCC(=O)Nc1ccc2c(c1)OCO2,–,"inconclusive: 29.1 µM [cytotoxic, single point]"
CN(CC1CCCO1)S(=O)(=O)c1ccc(C(=O)Nc2ccc3c(c2)OCO3)cc1 (configuration not stated),inactive: -11.4%,–
Cc1csc(SC(C)C(=O)NCC2CCCO2)n1 (configuration not stated),–,"inconclusive: 23.1 µM [rising, single point]"
CCOC(=O)c1c(S(=O)(=O)N2CCCC(C(=O)NCc3ccc(Cl)cc3)C2)c(C)n(C)c1C (configuration not stated),inactive: 14%,–
CSc1ccc(C2NC(=O)c3c(sc4c3CCN(C)C4)N2)cc1 (configuration not stated),–,"inconclusive: 18.4 µM [cytotoxic, single point]"
CCn1ncc(/C=N\NC(=O)COc2cc(C)cc(C)c2)c1C,–,"inconclusive: 29.1 µM [cytotoxic, single point]"
Cc1ccc(S(=O)(=O)N2CCC(=O)N(C(COCc3cccc(C)c3)C(C)C)CC2)cc1 (configuration not stated),–,"inconclusive: 29.1 µM [cytotoxic, single point]"
Cc1cccc(N2CCN(C(=O)C3CC(=O)N(c4ccc5c(c4)OCCO5)C3)CC2C)c1 (configuration not stated),–,"inconclusive: 29.1 µM [cytotoxic, single point]"
O=S1(=O)N=C(N(CCO)/N=C/c2ccc(Br)cc2)c2ccccc21,inactive: 22.8%,–
O=S(=O)(/N=C(/Sc1ccccc1)c1ccccc1)c1ccc(Cl)cc1,inconclusive: 41.4%,–
CCN(CC)CCNC(=O)C(Cl)=C1C(Cl)=C(Cl)C(Cl)=C1Cl,–,"inconclusive: 16.4 µM [cytotoxic, partial curve, poor fit]"
COc1cccc(/C=C2\SC(=S)N(CCC(=O)NC3C=CS(=O)(=O)C3)C2=O)c1 (configuration not stated),–,"inconclusive: 14.6 µM [cytotoxic, partial curve, poor fit]"
